The other results are listed elsewhere or left out.

By UniProt entry, the sequences of proteins in these tests, tags left out. Where a name states a change or a piece, a line headed by the entry shows the natural chain unless it says otherwise.
UniProt Q9NPD8: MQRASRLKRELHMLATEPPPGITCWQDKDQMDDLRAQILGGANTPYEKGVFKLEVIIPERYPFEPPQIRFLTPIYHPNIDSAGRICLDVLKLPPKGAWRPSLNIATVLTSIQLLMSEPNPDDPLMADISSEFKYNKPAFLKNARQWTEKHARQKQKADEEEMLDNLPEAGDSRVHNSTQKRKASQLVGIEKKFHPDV
UniProt P60604: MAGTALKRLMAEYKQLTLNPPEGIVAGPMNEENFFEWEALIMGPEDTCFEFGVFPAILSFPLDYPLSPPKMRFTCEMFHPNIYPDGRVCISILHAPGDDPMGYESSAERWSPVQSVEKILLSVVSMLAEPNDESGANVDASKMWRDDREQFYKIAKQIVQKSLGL
UniProt Q9UGJ1, whole entry, looked up: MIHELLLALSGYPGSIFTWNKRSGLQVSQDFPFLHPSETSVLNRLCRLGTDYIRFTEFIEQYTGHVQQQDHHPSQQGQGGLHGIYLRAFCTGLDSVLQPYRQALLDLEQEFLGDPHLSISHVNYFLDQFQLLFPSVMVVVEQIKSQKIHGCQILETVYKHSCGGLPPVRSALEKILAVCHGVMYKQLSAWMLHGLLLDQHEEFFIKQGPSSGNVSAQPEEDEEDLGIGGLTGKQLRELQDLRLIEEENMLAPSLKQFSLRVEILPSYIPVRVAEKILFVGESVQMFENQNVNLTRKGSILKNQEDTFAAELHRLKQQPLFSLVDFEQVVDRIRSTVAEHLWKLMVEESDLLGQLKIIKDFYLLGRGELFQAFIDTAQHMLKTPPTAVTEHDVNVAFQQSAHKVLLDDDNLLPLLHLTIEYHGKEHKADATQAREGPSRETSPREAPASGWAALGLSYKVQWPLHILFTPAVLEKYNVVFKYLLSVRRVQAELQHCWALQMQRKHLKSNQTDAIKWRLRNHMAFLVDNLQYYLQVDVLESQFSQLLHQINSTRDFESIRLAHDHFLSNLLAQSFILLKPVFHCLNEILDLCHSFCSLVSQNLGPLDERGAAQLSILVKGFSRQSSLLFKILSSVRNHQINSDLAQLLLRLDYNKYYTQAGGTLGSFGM
UniProt Q96ET8: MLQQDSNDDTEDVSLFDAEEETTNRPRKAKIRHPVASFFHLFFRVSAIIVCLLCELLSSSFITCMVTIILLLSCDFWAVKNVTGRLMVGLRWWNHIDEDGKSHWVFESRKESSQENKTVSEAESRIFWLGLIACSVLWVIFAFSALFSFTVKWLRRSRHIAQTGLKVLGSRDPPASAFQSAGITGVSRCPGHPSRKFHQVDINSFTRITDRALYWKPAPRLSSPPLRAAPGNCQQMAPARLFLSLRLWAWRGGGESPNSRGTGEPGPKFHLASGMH
UniProt P63279, whole entry, looked up: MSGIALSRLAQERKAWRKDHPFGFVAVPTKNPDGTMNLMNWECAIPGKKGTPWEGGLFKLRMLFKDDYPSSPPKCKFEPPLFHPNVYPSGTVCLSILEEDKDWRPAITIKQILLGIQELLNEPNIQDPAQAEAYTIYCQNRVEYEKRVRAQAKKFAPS
UniProt Q96RT8, whole entry, looked up: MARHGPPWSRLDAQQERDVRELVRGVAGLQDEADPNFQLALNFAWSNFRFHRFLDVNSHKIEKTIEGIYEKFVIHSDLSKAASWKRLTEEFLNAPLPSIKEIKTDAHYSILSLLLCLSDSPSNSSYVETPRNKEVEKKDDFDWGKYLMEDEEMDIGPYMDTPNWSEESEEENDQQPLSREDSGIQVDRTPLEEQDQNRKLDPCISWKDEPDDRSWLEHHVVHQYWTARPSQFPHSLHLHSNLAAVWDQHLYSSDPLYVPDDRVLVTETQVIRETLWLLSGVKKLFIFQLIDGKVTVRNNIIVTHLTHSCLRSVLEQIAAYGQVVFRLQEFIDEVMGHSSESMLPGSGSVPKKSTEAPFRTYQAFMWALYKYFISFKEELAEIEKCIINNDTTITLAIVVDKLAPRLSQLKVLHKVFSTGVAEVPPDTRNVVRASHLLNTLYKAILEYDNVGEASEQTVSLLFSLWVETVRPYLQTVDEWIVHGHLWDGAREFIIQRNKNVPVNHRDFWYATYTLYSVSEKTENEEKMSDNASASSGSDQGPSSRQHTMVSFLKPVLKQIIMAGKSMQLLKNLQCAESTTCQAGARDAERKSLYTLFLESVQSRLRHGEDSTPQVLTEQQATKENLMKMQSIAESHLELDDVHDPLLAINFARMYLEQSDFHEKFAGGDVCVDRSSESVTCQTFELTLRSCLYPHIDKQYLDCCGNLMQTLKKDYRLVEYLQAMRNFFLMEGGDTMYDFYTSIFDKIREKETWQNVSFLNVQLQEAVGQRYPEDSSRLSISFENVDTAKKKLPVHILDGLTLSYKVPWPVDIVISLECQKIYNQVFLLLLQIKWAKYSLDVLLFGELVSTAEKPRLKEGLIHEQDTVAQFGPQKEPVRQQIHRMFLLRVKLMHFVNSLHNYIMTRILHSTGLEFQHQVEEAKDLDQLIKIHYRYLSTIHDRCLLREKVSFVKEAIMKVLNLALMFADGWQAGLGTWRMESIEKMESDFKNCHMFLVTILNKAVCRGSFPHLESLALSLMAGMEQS
UniProt O95881: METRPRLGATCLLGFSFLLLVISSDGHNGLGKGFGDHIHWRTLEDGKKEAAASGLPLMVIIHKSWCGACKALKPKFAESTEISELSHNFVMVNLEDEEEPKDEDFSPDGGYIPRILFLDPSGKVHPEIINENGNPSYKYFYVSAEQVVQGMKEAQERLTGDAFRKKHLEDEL
UniProt Q9H832: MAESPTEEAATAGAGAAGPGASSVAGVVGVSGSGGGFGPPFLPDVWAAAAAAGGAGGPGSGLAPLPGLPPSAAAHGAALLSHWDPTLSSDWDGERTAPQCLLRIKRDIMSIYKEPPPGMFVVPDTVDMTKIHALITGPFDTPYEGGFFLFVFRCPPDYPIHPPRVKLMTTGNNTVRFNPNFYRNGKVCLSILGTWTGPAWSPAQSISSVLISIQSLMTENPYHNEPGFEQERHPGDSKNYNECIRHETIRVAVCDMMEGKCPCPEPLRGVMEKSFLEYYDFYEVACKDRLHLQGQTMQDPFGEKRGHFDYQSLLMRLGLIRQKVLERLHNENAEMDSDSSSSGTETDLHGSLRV
UniProt P68363, whole entry, looked up: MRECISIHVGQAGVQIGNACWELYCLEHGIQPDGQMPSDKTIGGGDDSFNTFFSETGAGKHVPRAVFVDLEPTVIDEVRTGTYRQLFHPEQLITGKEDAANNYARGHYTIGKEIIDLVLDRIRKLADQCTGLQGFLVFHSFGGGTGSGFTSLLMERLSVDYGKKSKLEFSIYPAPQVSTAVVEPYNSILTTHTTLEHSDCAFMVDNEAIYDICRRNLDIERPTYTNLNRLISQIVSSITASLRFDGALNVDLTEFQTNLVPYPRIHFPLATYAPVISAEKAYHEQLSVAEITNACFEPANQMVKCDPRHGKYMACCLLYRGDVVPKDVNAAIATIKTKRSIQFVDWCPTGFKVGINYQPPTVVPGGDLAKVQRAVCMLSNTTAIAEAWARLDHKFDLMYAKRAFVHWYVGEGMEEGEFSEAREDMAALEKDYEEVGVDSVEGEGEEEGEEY
UniProt P40222: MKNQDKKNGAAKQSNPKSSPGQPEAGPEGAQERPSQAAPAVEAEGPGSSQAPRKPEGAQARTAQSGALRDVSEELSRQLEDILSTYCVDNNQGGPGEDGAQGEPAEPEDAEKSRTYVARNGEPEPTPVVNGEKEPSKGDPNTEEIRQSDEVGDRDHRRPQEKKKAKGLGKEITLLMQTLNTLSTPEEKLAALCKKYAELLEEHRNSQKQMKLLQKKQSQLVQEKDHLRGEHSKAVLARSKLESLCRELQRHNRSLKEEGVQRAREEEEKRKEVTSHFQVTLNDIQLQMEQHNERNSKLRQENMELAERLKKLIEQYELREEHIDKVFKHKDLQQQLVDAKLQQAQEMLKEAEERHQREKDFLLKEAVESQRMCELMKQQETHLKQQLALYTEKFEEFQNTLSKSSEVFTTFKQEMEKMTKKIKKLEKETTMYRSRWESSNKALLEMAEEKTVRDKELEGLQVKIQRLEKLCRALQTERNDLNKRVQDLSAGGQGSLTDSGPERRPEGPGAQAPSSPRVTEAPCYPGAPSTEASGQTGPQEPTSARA
UniProt P04350, whole entry, looked up: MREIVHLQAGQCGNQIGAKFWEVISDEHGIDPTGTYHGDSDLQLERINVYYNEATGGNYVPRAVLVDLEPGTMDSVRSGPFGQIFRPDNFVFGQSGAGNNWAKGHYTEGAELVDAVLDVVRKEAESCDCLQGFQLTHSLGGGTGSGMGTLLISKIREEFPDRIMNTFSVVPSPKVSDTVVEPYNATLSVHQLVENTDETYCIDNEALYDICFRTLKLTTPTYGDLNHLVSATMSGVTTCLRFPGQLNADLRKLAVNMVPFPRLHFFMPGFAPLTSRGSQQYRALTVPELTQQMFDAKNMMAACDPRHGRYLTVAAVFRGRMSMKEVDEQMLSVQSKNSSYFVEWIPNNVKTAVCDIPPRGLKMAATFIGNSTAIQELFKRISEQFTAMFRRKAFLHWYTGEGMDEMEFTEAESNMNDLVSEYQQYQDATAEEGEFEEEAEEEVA
UniProt Q96AE7: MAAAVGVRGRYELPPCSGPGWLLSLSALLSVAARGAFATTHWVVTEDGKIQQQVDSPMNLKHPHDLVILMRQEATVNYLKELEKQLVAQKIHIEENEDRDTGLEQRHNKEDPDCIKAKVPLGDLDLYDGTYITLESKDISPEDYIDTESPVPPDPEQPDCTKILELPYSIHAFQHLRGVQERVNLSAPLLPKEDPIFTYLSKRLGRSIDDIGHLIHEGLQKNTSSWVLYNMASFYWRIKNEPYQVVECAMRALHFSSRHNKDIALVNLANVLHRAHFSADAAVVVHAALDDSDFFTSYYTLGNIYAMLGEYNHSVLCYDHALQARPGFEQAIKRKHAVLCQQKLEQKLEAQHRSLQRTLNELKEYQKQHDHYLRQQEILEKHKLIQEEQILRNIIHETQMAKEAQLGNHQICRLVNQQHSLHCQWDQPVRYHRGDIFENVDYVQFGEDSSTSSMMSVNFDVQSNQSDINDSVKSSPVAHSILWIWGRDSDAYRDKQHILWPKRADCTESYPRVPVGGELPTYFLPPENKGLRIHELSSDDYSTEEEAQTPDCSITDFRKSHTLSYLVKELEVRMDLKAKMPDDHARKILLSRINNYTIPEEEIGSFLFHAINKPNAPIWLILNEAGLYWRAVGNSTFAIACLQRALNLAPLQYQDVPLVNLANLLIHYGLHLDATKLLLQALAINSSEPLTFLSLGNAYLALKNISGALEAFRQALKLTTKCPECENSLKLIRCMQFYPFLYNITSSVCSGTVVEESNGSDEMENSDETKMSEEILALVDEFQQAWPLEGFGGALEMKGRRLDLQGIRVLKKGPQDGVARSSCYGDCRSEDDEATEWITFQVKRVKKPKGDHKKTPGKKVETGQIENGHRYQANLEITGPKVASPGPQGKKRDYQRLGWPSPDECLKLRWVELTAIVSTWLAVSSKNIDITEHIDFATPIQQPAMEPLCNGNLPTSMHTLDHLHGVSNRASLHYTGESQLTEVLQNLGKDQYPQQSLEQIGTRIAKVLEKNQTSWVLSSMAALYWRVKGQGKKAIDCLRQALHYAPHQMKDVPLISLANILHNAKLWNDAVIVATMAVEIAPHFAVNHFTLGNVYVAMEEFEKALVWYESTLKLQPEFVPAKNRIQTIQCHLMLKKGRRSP
UniProt Q6PKC3: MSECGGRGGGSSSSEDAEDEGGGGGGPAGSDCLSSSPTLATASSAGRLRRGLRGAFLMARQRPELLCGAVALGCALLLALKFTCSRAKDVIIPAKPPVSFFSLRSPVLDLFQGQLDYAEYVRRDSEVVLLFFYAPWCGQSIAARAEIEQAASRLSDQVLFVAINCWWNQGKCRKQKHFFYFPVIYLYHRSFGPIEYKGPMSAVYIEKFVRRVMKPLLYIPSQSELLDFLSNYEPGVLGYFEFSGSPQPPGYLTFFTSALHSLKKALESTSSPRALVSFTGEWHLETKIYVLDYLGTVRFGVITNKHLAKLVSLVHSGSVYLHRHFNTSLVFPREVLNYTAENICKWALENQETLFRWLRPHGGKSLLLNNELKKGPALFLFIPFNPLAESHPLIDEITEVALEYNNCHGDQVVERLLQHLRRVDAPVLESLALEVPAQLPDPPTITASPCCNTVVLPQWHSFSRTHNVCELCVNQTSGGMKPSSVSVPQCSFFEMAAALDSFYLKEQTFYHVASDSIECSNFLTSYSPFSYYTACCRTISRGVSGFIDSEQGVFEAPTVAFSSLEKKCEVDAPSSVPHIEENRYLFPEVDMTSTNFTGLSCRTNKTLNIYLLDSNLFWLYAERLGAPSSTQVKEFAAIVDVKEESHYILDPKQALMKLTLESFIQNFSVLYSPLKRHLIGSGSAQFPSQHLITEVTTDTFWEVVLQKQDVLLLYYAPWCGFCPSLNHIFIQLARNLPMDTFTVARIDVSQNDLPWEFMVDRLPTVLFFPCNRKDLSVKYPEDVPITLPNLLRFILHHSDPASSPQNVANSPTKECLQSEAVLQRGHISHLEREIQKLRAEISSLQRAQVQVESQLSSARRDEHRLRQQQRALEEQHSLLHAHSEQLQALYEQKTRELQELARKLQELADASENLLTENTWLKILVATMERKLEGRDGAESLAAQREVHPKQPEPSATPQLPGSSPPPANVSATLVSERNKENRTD

From the supplement of paper PMC10849652 come the findings set out here.

Compound in the assay: c1cn2cc(-c3ccc4cn[nH]c4c3)nc(Nc3ccc(N4CCOCC4)cc3)c2n1 [entospletinib]
Nature of the assay: log2 fold change, soluble protein after heating vs DMSO (PISA); higher = thermal stabilisation; K562 cells, 10 uM, 30 min; active = over 0.2 and 3.5 SD of the protein, either way, in both replicates (recomputed). In short, it runs like this: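 K562 cells at 2×10^6 cells/mL were given 10 μM compound for 30 min. Aliquots then went through 3 min of heating across 48°C-58°C, were pooled, and were extracted in PBS with 0.5% NP-40 at 4°C, and the supernatant after 21,000xg for 90 min was quantified by TMTpro 16plex LC-MS/MS with channel sums equalised. Thermal stability relative to control samples, from duplicates, is given as log2 fold change.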
In the case of UBE2T (UniProt Q9NPD8), the log2 fold change is inactive: 0.021.
The figure for UBE2M (UniProt P61081) is inactive: 0.009; for UBE2G2 (UniProt P60604) it is inactive: 0.053.
TSPAN4 (UniProt O14817): the log2 fold change is inactive: 0.022.
With TUBGCP4 (UniProt Q9UGJ1) the figure was inactive: 0.307.
For the target UBE2F isoform 2 (UniProt Q969M7), the log2 fold change was inactive: 0.037.
The figure for TXNDC2 (UniProt Q86VQ3) is inactive: 0.072.
For the target TVP23C (UniProt Q96ET8), the log2 fold change is active: 0.419.
With TXLNG (UniProt Q9NUQ3) the figure was inactive: -0.047; with UBE2I (UniProt P63279), inactive: 0.066.
As for UBE2K (UniProt P61086), the log2 fold change is inactive: -0.029.
With UBE2R2 (UniProt Q712K3) the figure was inactive: 0.015; with TXNDC17 (UniProt Q9BRA2), inactive: 0.018.
The figure for UBE2D3 isoform 3 (UniProt P61077) is inactive: 0.018; for TUBB4B (UniProt P68371) it is inactive: 0.004.
The figure for TUBGCP5 (UniProt Q96RT8) is inactive: 0.134; for UBE2V2 (UniProt Q15819) it is inactive: 0.06; for TUT7 (UniProt Q5VYS8) it is inactive: -0.016.
Turning to TXNDC12 (UniProt O95881), the log2 fold change was inactive: 0.05.
The figure for UBE2Z (UniProt Q9H832) is inactive: -0.013; for TUBA1B (UniProt P68363) it is inactive: -0.037.
With UBAC1 (UniProt Q9BSL1) the figure was inactive: 0.
As for TXN (UniProt P10599), the log2 fold change is inactive: 0.003.
As for TSPAN31 (UniProt Q12999), the log2 fold change is inactive: -0.045.
The figure for TSPAN3 (UniProt O60637) is inactive: -0.004.
Turning to TXNL4A (UniProt P83876), the log2 fold change was inactive: 0.025.
The figure for TTC5 (UniProt Q8N0Z6) is inactive: -0.062.
The figure for TSN (UniProt Q15631) is inactive: -0.023; for TXLNA (UniProt P40222) it is inactive: -0.01; for TUBB4A (UniProt P04350) it is inactive: 0.007.
With TTC17 (UniProt Q96AE7) the figure was inactive: -0.019.
In the case of TXNDC11 (UniProt Q6PKC3), the log2 fold change is inactive: -0.051.
With TUBB3 (UniProt Q13509) the figure was inactive: -0.002; with UBA2 (UniProt Q9UBT2), inactive: 0.038.
